Results as given in US20110020373A1.
No constants are given. Whether binding was seen depends on the method and setting. Some binding calls cover weakened binding; strength is not graded here. Tags and fused reporters may be left off the sequences shown.

Amino acid sequences for entries named in this document (tags omitted). A change or cut given only in a name is not applied to a line headed by its entry. Residues count along the entry.
UniProt P12319, residues 26-257: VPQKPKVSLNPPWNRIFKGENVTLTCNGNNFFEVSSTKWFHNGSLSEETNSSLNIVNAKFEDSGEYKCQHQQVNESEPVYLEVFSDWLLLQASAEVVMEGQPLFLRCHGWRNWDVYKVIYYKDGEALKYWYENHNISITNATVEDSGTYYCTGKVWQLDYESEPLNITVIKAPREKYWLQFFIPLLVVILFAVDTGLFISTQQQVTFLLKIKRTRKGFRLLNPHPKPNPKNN
UniProt Q01362: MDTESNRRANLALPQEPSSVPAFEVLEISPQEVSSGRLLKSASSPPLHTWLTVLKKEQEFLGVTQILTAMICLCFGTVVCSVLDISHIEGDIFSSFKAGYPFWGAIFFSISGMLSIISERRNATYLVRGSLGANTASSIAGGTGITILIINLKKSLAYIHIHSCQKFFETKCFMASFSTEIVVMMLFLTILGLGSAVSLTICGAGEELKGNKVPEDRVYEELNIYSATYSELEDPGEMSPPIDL
UniProt P30273: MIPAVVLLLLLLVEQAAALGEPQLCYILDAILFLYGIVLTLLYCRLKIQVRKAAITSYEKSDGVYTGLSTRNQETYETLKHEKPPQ

Legend:
[1] = biological target: T1, entire FcεRI receptor complex on Ku812 cells (human) (UniProt P12319+Q01362+P30273); assay: flow cytometry on Ku812 cells (legend of FIG. 4G)
[2] = biological target: T1, entire FcεRI receptor complex on Ku812 cells (human); assay: flow cytometry on Ku812 cells, detected with FITC goat anti-human epsilon chain
[3] = biological target: human FcεRIα chain (human) (UniProt P12319); assay: flow cytometry on 3D10 cells, detected with FITC goat anti-human epsilon chain
[4] = biological target: human FcεRIα chain (human) (UniProt P12319); assay: flow cytometry on 3D10 cells (legend of FIG. 4F)

Measured: binding

B1: EPL fusion protein (Fc Epsilon-PolyLysine protein) (protein)
chain: FTPPTVKILQSSCDGGGHFPPTIQLLCLVSGYTPGTINITWLEDGQVMDVDLSTASTTQEGELASTQSELTLSQKHWLSDRTYTCQVTYQGHTFEDSTKKCADSNPRGVSAYLSRPSPFDLFIRKSPTITCLVVDLAPSKGTVNLTWSRASGKPVNHSTRKEEKQRNGTLTVTSTLPVGTRDWIEGETYQCRVTHPHLPRALMRSTTKTSGPRAAPEVYAFATPEWPGSRDKRTLACLIQNFMPEDISVQWLHNEVQLPDARHSTTQPRKTKGSGFFVFSRLEVTRAEWEQKDEFICRAVHEAASPSQTVQRAVSVNPGKKKKKKKKKKKKKKKKKKKKKKKKKKKKKKKKKKKKKKKKKKKKKKKKKKKKKKKKKKKKK
binds: [1] | [2] | [3] | [4]
